From the supplement of paper PMC10735217
Structures can show the parent of a compound that is named as a salt. This is one part of the list. Repeats in this data set agree poorly, so a single value says little.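 In a drug-repurposing library screen, luminescence reads luciferase driven by eight TEAD-binding elements, stably integrated into human kidney-derived cells. Compounds scoring over five robust Z scores above the plate mean are called hits.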

Test system: HEK293A TEAD-LUC reporter
Assay: TEAD-luciferase reporter activity (YAP activation), robust Z score vs plate; higher = stronger YAP/TEAD activation
Conditions: 24 h

| Compound | TEAD-luciferase reporter activity (compound concentration: 200 nM) | TEAD-luciferase reporter activity (compound concentration: 2 uM) | TEAD-luciferase reporter activity (compound concentration: 10 uM) |
| --- | --- | --- | --- |
| CC(CC(=O)c1ccc(-c2ccccc2)cc1)C(=O)O (centres undefined) [metbufen] | inactive: -0.741 | inactive: 0.941 | inactive: 1.43 |
| COc1ccc2c(c1)C(OC(C)C)=C(C(N)=O)S2=O (centres undefined) | inactive: -2.29 | inactive: 1.5 | inactive: 0.458 |
| CCCc1nn(C)c2c(=O)[nH]c(-c3cc(S(=O)(=O)N4CCN(CCOC(=O)OCCN5CCN(S(=O)(=O)c6ccc(OCC)c(-c7nc8c(CCC)nn(C)c8c(=O)[nH]7)c6)CC5)CC4)ccc3OCC)nc12 [Lodenafil carbonate] | inactive: -0.478 | inactive: -0.843 | inactive: -0.699 |
| Cc1nn(CCOc2ccc(CC3SC(=O)NC3=O)cc2)c(=O)c2ccccc12 (centres undefined) | inactive: -0.873 | inactive: -0.957 | inactive: 1.56 |
| Cc1cc(-c2ccccc2)c(C(=O)C(=O)Nc2ccc(N3CCN(c4ncc(F)cn4)CC3)cc2)n1C | inactive: 0.106 | inactive: -0.727 | inactive: -1.68 |
| C1=C(C=C2NCCN2)CCc2ccccc21 [Napamezole] | inactive: 1.8 | inactive: -0.954 | inactive: 2.35 |
| Cc1cc(Cn2cnc3c2C[C@@H](C(=O)O)N(C(=O)C(c2ccccc2)c2ccccc2)C3)ccc1N(C)C | inactive: 0.0306 | inactive: -1.77 | inactive: -1.36 |
| NC1CONC1=O [D-cycloserine, Searle] | inactive: -0.0402 | inactive: -0.633 | active: 8.64 |
| CC(C)c1cc(N2CC[C@@H](N)C2)nc(N)n1 | inactive: -0.711 | inactive: 1.82 | inactive: -1.71 |
| O=C(c1ccc(Cl)cc1)N1CCC(n2c(=O)[nH]c3ccccc32)CC1 | inactive: 1.35 |  |  |
| CN(C)CC(CN1c2ccccc2Sc2ccccc21)N(C)C (centres undefined) | inactive: -0.186 | inactive: 1.27 | inactive: -0.163 |
| COC(=O)/C=C/C(=O)OCCN1C(=O)CCC1=O | inactive: -1.21 | inactive: -0.615 | inactive: 0.134 |
| CCOC(=O)c1ccc(OCCC2CCN(c3ccc(C)nn3)CC2)cc1 [Pirodavir] | inactive: -0.196 | inactive: 1.13 | inactive: -1.08 |
| CCCc1c([C@@H]2C[C@H]2c2ccccc2C)oc2ccc(C(=O)O)cc2c1=O | inactive: -0.615 | inactive: 0.0547 | inactive: -0.182 |
| CNc1c2c(nn1C)CCCC2 | inactive: -1.69 | inactive: 1.29 | inactive: -1.37 |
| CCOCCc1c(-c2ccccc2)nc(N)n2ncnc12 [bemitradine] | inactive: -0.531 | inactive: 0.48 | inactive: 0.496 |
| O=C(C1CCCCC1)N1CC(=O)N2CCc3ccccc3C2C1 (centres undefined) | inactive: -0.297 |  | inactive: 0.729 |
| O=C(C1CCCCC1)N1CC(=O)N2CCc3ccccc3C2C1 (centres undefined) [praziquantel] |  | inactive: -0.455 |  |

Rewritten tab-delimited: entries from further up
Compound	TEAD-luciferase reporter activity (compound concentration: 200 nM)	TEAD-luciferase reporter activity (compound concentration: 2 uM)	TEAD-luciferase reporter activity (compound concentration: 10 uM)
CNc1c2c(nn1C)CCCC2	inactive: -1.69	inactive: 1.29	inactive: -1.37
CCOCCc1c(-c2ccccc2)nc(N)n2ncnc12 [bemitradine]	inactive: -0.531	inactive: 0.48	inactive: 0.496

The list continues.

| Compound | TEAD-luciferase reporter activity (compound concentration: 200 nM) | TEAD-luciferase reporter activity (compound concentration: 2 uM) | TEAD-luciferase reporter activity (compound concentration: 10 uM) |
| --- | --- | --- | --- |
| Cc1cccc(-c2[nH]c(CNc3ccccc3F)nc2-c2ccc3ncnn3c2)n1 | inactive: -1.72 | inactive: 2.54 | inactive: -0.939 |
| NC(=S)N/N=C/c1ncccc1NC(=O)OCc1cc(F)ccc1OP(=O)(O)O | inactive: -1.55 | inactive: -1.2 | inactive: 0.448 |
| O=C(c1cccnc1)N1CCN2C(=O)c3ccncc3C12c1ccc(Cl)cc1 (centres undefined) | inactive: -1.09 | inactive: -0.000715 | inactive: 2.42 |
| Cc1cc(CCCCCOc2c(Cl)cc(C3=NCCO3)cc2Cl)on1 | inactive: -0.694 | inactive: -0.00323 | inactive: 0.845 |
| CCOc1cc(CNc2cnnc(O)c2Cl)ccc1OC | inactive: 0.181 | inactive: 1.02 | inactive: -0.486 |
| Cc1cnc(Nc2ccc(OCCN3CCCC3)cc2)nc1Nc1cccc(S(=O)(=O)NC(C)(C)C)c1 [Fedratinib] | inactive: 0.617 | inactive: -0.843 | inactive: 1.45 |
| COc1ccc(CCN(C)CCCN2Cc3cc(OC)c(OC)cc3C2=O)cc1OC [Falipamil] | inactive: 0.101 | inactive: -0.406 | inactive: 0.259 |
| CC[C@]1(O)C[C@H]2CN(CCc3c([nH]c4ccccc34)[C@@](C(=O)OC)(c3cc4c(cc3OC)N(C)[C@H]3[C@@](O)(C(=O)OC)[C@H](OC(C)=O)[C@]5(CC)C=CCN6CC[C@]43[C@@H]65)C2)C1 [Vinblastine sulfate] |  | inactive: -0.762 |  |
| CC[C@]1(O)C[C@H]2CN(CCc3c([nH]c4ccccc34)[C@@](C(=O)OC)(c3cc4c(cc3OC)N(C)[C@H]3[C@@](O)(C(=O)OC)[C@H](OC(C)=O)[C@]5(CC)C=CCN6CC[C@]43[C@@H]65)C2)C1 [Vinblastine sulfate salt] | inactive: 4.36 |  | inactive: -0.685 |
| CN(C)Cc1cccc(N/C(=C2\C(=O)Nc3cc(C(=O)N(C)C)ccc32)c2ccccc2)c1 | inactive: -0.465 | inactive: -1.5 | inactive: 1.45 |
| COc1ccc2c(c1)CC[C@H](CN(C)CC(=O)O)[C@@H]2c1ccccc1 | inactive: -0.288 | inactive: 0.298 | inactive: -1.55 |
| CCCN(CCC)CCc1cccc2c1CC(=O)N2 [ropinirole XR] |  | inactive: 0.217 |  |
| CCCN(CCC)CCc1cccc2c1CC(=O)N2 [ropinirole XR, GSK] | inactive: -0.375 |  | inactive: -0.714 |
| COc1ccccc1CN(C[C@@H](Cc1c[nH]c2ccccc12)NC(=O)CN1CCC(N2CCCCC2)CC1)C(C)=O | inactive: -0.931 | inactive: 0.749 | inactive: 2.05 |
| Nc1ccc(S(N)(=O)=O)cc1 [Sulfanilamide] | inactive: -0.233 | inactive: 0.166 | inactive: 0.0561 |
| O=C(Nc1ccc(C(F)(F)F)cc1)C1CCN(C(=O)Cn2c(=O)sc3ccc(Cl)cc32)CC1 | inactive: -0.628 | inactive: -1.99 | inactive: 1.08 |
| Cc1cc(C)c2nc(-c3cnc(NCCCC4CCN(C)CC4)nc3C)[nH]c2c1 [Toreforant] | inactive: -0.607 | inactive: -0.732 | inactive: 1.04 |
